Article PMC11848572, “Expanding the Functions of KHSRP Protein: Insights into DNA G‐Quadruplex Binding”
Weaker means in comparison with the reference protein, sequence or condition of that experiment. Protein sequences can lack the tags named with them. For some of these results: The exact form of at least one protein or probe is not confirmed.

Experiments:
[1] = target: T1, KHSRP130-503 (four KH domains) (Homo sapiens) (UniProt Q92945); assay: NMR titration of complex; settings: pyridostatin; recombinant protein; residues 130-503; protein details: N-terminal His-tag (pET-28a), TEV-cleaved; folded or branched DNA
T1 sequence (looked up): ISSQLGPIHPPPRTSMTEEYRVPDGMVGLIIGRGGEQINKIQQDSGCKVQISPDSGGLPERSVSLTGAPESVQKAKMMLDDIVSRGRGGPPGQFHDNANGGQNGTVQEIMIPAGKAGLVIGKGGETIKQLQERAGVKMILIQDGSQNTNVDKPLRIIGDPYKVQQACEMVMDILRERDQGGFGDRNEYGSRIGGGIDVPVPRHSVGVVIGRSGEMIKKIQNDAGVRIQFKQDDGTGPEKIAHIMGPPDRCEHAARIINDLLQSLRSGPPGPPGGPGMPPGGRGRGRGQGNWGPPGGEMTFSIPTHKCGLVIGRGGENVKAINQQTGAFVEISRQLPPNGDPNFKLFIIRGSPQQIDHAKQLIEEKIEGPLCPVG

[2] = target: T1, KHSRP130-503 (four KH domains) (Homo sapiens); assay: 1D 1H NMR; settings: recombinant protein; residues 130-503; protein details: N-terminal His-tag (pET-28a), TEV-cleaved; folded or branched DNA

Sequence	binding result [1]	binding result [2]
CGGGCGGGCGCTAGGGAGGGT [c-Kit2]	binds more weakly	
GGGCGCGGGAGGAATTGGGCGGG [Bcl-2]		binds more weakly
TGAGGGTGGGTAGGGTGGGTAA [c-Myc]	binds more weakly	
TTGGGTTAGGGTTAGGGTTAGGGA [mTel24]		binds more weakly
